The values below come from patent publication US9840464B2, “IAP binding compounds” (TetraLogic Birinapant UK Ltd., priority 2004, dated 2017).

Protein sequences, listed by entry. Tags and fused reporters are not part of them. Residues count along the entry.
UniProt P98170, 241-356 limits assumed: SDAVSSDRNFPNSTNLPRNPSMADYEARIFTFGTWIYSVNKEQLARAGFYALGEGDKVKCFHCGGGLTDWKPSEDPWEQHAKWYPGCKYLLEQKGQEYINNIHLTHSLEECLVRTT

SMILES strings stand for the structures. The structures given here were assigned with low confidence; some may be wrong. Some results are limits rather than exact numbers.

Experiment [1] concerns the target XIAP-BIR3 (Homo sapiens, UniProt P98170). Put plainly: XIAP BIR3 fluorescence polarization binding assay (competition with AbuRPF-K(5-Fam)-NH2). As to conditions: read-out: KD Range; 5 nM AbuRPF-K(5-Fam)-NH2, 40 nM XIAP-BIR3, pH 7.5; Kd calculated from measured IC50. How it is done:
Binding constants (Kd) were measured using fluorescence polarization as described by Zaneta Nikolovska-Coleska, Renxiao Wang, Xueliang Fang, Hongguang Pan, York Tomita, Peng Li, Peter P. Roller, Krzysztof Krajewski, Naoyuki Saito, Jeanne Stuckey and Shaomeng Wang, in “Development and Optimization of a Binding Assay for the XIAP BIR3 Domain Using Fluorescence Polarization”, Analytical Biochemistry 2004, 332, 261-273). Briefly, test IAP binding compounds at various concentrations for binding measurements were mixed with 5 nM fluorescently labeled peptide (AbuRPF-K(5-Fam)-NH2) and 40 nM of XIAP-BIR3 for 15 minutes at room temperature in 100 μL of 0.1M Potassium Phosphate buffer, pH 7.5 containing 100 μg/ml bovine γ-globulin. Following incubation, the polarization values (mP) were measured on a Victor^2V using a 485 nm excitation filter and a 520 nm emission filter. IC50 values were determined from the plot using nonlinear least-squares analysis using GraphPad Prism. The Kd values of competitive inhibitors were calculated using the equation described by Zaneta Nikolovska-Coleska et al. based upon the measured IC50 values, the Kd value of the probe and XIAP BIR3 complex, and the concentrations of the protein and probe in the competition assay. In various examples of IAP binding or IAP binding cargo molecules ranges for Kd values: Group A: Kd<0.1 μM; Group B: Kd=0.1-1 μM; Group C: Kd=1-10 μM; Group D: Kd>10 μM.

For experiment [2], the system named is SK-OV-3 cells. Put plainly: MTT cell growth/survival assay. As to conditions: read-out: EC50, μM (±sd), 72 hrs incubation, drug concentration that results in 50% cell survival. How it is done:
The MTT assay is an example of an assay that has been used for measuring cell growth as previously described (Hansen, M. B., Nielsen, S. E., and Berg, K. J. Immunol. Methods 1989, 119, 203-210) and incorporated herein by reference in its entirety. Briefly, SK-OV-3 cells were seeded in 96-well plates in McCoy's medium containing 10% fetal bovine serum […] (20,000 per well) and incubated overnight at 37° C. Next day, test compounds were added at various concentrations typically from about 10 to about 0.0001 μM and the plates were incubated at 37° C. for an additional 72 hrs. This incubation time was optimal for measuring inhibitory effects of different analogs. 50 microliters of 5 mg/mL MTT reagent to each well was added and the plates were incubated at 37° C. for 3 hours. At the end of incubation period, 50 microliters of DMSO was added to each well to dissolve cells and the optical density (OD) of the wells was measured with a microplate reader (Victor^2 1420, Wallac, Finland) at 535 nm. Cell survival (CS) was calculated by the following equation: CS=(OD treated well/mean OD control wells)×100%
The EC50, defined as the drug concentration that results in 50% CS, was derived by calculating the point where the dose-response curve crosses the 50% CS point using GraphPad Prism.

Consider `CC(C)[C@H](NC(=O)[C@H](C)N)C(=O)N1CCC[C@H]1Cc1c(-c2ccccn2)oc2ccccc12`, for which the Kd in experiment [1] is below 100 nM.

Consider `CC(C)[C@H](NC(=O)CN)C(=O)N1CCC[C@H]1CCCOc1ccccc1-c1ccccc1`, for which, in experiment [1], the Kd was above 10000 nM.

As to `CN[C@@H](C)C(=O)N[C@H](C(=O)N1CCC[C@H]1Cc1coc2ccccc12)C1CCCCC1`, the Kd in experiment [1] is below 100 nM.

As to `COc1ccc(-c2oc3ccccc3c2C[C@@H]2CCCN2C(=O)[C@@H](NC(=O)[C@H](C)N)C(C)C)cn1`, the Kd in experiment [1] is 100 to 1000 nM.

For `C[C@H](N)C(=O)N[C@H](C(=O)N1C[C@@H](Oc2ccccc2)C[C@H]1Cc1coc2ccccc12)C1CCCCC1`, the Kd in experiment [1] is below 100 nM.

With `CN[C@@H](C)C(=O)N[C@H](C(=O)N1CCC[C@H]1Cc1cn(CCOCCOCCOC)c2cc(F)ccc12)C(C)(C)C`, in experiment [2], the EC50 is 0.092 µM. Besides, in experiment [1], the dissociation constant Kd was 100 to 1000 nM.

Turning to `CC(C)[C@H](NC(=O)[C@H](C)N)C(=O)N1C[C@@H](Oc2ccccc2)C[C@H]1/C=C/COc1ccc2c(c1)CCCC2`, the Kd in experiment [1] is 1000 to 10000 nM.

For `Cc1ccc2occ(C[C@@H]3CCCN3C(=O)[C@@H](NC(=O)[C@H](C)N)C(C)C)c2c1`, in experiment [1], the Kd was below 100 nM.
